The text below walks through data of patent US20220242957A1.

The chains behind the UniProt entries cited, without tags or fusion partners. Where a name states a change or a piece, a line headed by the entry shows the natural chain unless it says otherwise.
UniProt P51683: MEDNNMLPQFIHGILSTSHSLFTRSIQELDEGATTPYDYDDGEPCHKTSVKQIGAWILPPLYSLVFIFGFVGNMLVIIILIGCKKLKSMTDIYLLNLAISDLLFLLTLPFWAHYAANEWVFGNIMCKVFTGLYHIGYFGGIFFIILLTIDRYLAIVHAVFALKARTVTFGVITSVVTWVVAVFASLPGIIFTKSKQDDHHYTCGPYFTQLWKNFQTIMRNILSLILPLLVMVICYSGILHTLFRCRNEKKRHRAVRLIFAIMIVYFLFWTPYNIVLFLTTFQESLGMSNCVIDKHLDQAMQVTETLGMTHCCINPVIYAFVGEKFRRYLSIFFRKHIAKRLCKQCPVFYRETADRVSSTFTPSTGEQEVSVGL
UniProt P09581: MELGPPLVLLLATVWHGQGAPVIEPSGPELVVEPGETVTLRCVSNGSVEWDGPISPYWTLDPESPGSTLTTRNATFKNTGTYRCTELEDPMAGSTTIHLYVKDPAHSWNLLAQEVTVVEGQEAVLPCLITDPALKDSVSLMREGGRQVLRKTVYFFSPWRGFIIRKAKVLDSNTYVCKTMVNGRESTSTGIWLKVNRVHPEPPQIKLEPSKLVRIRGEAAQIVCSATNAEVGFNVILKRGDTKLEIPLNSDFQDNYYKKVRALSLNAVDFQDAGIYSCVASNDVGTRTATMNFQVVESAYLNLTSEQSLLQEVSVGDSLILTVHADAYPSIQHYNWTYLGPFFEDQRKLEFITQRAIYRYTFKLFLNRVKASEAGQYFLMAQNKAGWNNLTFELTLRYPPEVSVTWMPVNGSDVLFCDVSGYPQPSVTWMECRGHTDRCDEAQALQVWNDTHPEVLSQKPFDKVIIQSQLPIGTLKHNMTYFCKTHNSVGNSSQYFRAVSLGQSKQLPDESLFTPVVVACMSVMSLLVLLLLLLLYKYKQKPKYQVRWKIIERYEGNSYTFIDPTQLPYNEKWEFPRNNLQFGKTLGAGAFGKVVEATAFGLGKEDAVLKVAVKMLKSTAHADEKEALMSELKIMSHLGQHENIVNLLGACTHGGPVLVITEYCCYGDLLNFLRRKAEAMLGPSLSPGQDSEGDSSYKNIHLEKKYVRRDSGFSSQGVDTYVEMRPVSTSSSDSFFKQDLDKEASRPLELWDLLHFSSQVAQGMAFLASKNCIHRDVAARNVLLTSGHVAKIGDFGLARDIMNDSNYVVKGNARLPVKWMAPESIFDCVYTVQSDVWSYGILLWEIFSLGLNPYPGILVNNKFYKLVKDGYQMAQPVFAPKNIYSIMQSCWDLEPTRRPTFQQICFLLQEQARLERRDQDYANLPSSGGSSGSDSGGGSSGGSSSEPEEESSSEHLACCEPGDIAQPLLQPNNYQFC

This assay has as its target mouse CCR2 and mouse CSF1R, both expressed on the same ExpiCHO cells (mouse) (UniProt P51683+P09581). Description: flow cytometry on transiently transfected ExpiCHO cells. (In general: In flow cytometry, cells or beads pass a laser one at a time.)

Results are given in words; binding and its absence hold for the method and conditions named. Some results given as binding are weak or reduced against the parent protein; the word gives no strength.

B1: UniTI-01 (multispecific molecule #1, anti-CCR2/anti-CSF1R bispecific antibody) (bispecific antibody)
heavy 1: QVQLQESGPGLVQPSQTLSLTCTVSGFSLTDFSVHWVRQPPGKGLEWMGRIRSEGNTDYNSALKSRLSISRDTSKSQVFLKMNSLQTEDTAIYFCTRGDILGFGYWGQGVMVTVSSAQTTAPSVYPLAPGCGDTTSSTVTLGCLVKGYFPEPVTVTWNSGALSSDVHTFPAVLQSGLYTLTSSVTSSTWPSQTVTCNVAHPASSTKVDKKVERRTIKPCPPCKCPAPNLLGGPSVFIFPPKIKDVLMISLSPIVTCVVVDVSEDDPDVQISWFVNNVEVHTAQTQTHREDYNSTLRVVSALPIQHQDWMSGKEFKCKVNNKDLPAPIERTISKPKGSVRAPQVYVLPPCEEEMTKKQVTLWCMVTDFMPEDIYVEWTNNGKTELNYKNTEPVLDSDGSYFMYSKLRVEKKNWVERNSYSCSVVHEGLHNHHTTKSFSRTPGK
light 1: DIVMTQSPLSVSVTPGESASISCRSSKSLLHFKGITFVYWYLQKPGQSPQLLIFRMSSLASGVPDRFSGSGSETDFTLKISRVEAEDVGTYYCGQLLENPYTFGAGTKLELKRADAAPTVSIFPPSMEQLTSGGATVVCFVNNFYPRDISVKWKIDGSEQRDGVLDSVTDQDSKDSTYSMSSTLSLTKVEYERHNLYTCEVVHKTSSSPVVKSFNRNEC
heavy 2: QVQLQQSGAELVKPGSSVKISCKASGYTFTSNFMHWIKQQPGNGLEWIGWIYPGDGDTEYNQKFNGKATLTADKSSSTAYMQLSSLTSEDSAVYFCAVNYGGYVLDAWGQGASVTVSSAETTAPSVYPLAPGTALKSNSMVTLGCLVKGYFPEPVTVTWNSGALSSGVHTFPAVLQSGLYTLTSSVTVPSSTWSSQAVTCNVAHPASSTKVDKKIVPRECNTIKPCPPCKCPAPNLLGGPSVFIFPPKIKDVLMISLSPIVTCVVVDVSEDDPDVQISWFVNNVEVHTAQTQTHREDYNSTLRVVSALPIQHQDWMSGKEFKCKVNNKDLPAPIERTISKPKGSVRAPQVCVLPPPEEEMTKKQVTLSCAVTDFMPEDIYVEWTNNGKTELNYKNTEPVLDSDGSYFMVSKLRVEKKNWVERNSYSCSVVHEGLHNHHTTKSFSRTPGK
light 2: EIVLTQSPTTMAASPGEKVTITCRASSSTNYMSWYQQKSGASPKPWIYETSKLASGVPDRFSGSGSGTSYSFTISSMETEDAATYYCHQWSSTPLTFGSGTKLEIKRADAAPTVSIFPPSMEQLTSGGATVVCFVNNFYPRDISVKWKIDGSEQRDGVLDSVTDQDSKDSTYSMSSTLSLTKVEYERHNLYTCEVVHKTSSSPVVKSFNRNEC
For B1, the binding result is “binds”.
